Reference: US20150056210A1
Results are given in words; binding and its absence hold for the method and conditions named. Some binding calls cover weakened binding; strength is not graded here. Tags and fused reporters may be left off the sequences shown.

Molecular target: T1, ADAMTS-5 3×FLAG full length (human) (UniProt Q9UNA0)
T1 sequence: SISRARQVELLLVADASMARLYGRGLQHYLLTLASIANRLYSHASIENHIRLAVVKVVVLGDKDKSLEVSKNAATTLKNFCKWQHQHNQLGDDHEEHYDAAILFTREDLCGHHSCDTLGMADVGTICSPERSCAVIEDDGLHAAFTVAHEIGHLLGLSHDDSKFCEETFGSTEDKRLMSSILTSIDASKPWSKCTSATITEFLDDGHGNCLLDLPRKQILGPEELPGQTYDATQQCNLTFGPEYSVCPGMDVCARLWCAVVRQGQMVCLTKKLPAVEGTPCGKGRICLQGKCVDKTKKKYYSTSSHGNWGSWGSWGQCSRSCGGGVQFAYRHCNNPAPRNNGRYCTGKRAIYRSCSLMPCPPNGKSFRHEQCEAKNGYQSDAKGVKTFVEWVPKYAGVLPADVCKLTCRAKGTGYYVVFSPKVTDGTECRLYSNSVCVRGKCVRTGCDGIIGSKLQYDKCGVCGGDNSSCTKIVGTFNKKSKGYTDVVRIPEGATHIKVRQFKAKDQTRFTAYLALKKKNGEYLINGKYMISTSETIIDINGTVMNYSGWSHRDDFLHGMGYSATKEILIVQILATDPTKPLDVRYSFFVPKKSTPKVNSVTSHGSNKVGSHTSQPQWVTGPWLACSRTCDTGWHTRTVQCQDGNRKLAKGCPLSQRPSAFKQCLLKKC
Test: competition ELISA, CRB0017_IgG4 coated at 2 µg/ml, ADAMTS-5 at 4 µg/ml with Syndecan-4 at 0.1 µg/ml, anti-FLAG detection; competitor CRB0017_IgG4

B1: Syndecan-4 (protein, UniProt P31431 19-145, looked up)
chain: ESIRETEVIDPQDLLEGRYFSGALPDDEDVVGPGQESDDFELSGSGDLDDLEDSMIGPEVVHPLVPLDNHIPERAGSGSQVPTEPKKLEENEVIPKRISPVEESEDVSNKVSMSSTVQGSNIFERTE
  binding: binds
